As a reminder, the EC50 is the midpoint of the concentration-response curve. A low value points to an effect from little substance.

Amino acid sequences for entries named in this document (tags omitted). A change or cut given only in a name is not applied to a line headed by its entry.
UniProt P43119: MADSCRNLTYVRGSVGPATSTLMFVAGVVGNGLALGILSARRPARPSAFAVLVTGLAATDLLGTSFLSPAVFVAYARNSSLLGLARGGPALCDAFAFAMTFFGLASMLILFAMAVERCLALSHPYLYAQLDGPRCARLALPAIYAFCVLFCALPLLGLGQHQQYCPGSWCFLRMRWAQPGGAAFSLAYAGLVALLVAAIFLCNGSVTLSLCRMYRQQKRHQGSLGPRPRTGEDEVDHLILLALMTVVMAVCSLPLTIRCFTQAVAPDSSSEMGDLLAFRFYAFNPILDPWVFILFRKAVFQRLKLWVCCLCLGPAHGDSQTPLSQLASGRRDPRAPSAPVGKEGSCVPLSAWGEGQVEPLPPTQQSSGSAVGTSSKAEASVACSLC

For this experiment, the target named is T1, IP receptor (Homo sapiens, UniProt P43119).
T1 construct: expressed in transfected cells
Description: cAMP accumulation in CHO cells stably expressing the IP receptor (CHO-IP), Perkin Elmer AlphaScreen assay. The class given is cell-based. The settings on record: agonist activity, 1 hour at room temperature. As to the method:
Activity of compounds at the IP receptor (IP receptor) is assessed by measuring cAMP accumulation in CHO cells stably expressing the IP receptor (CHO-IP) using the Perkin Elmer AlphaScreen assay. This technology measures the endogenous production of cAMP, in a non-radioactive luminescence proximity homogenous assay. A biological reaction occurs between streptavidin coated donor beads, biotinylated cAMP and anti-cAMP acceptor beads, bringing the donor and acceptor beads close enough together so that upon excitation a fluorescence signal is produced. On production of endogenous cAMP, competition between the biotinylated cAMP and cellular-derived cAMP causes a reduction in the fluorescent signal. The reduction in signal is proportional to the amount of cAMP being produced, thus it is possible to quantify the amount of cAMP being produced on stimulation with agonist.
Test and reference compounds are prepared at 100× [final] in 100% DMSO, and diluted 1:3 using a Biomek Fx (Beckman Coulter). This is followed by an intermediate dilution to give 5× [final] in assay buffer (HBSS containing 5 mM HEPES, 0.1% (w/v) BSA). […] The assay plate is then incubated at room temperature in the dark, for 60 minutes with gentle shaking, and read on the Envision plate reader (Perkin Elmer). […]
(Changes in cAMP serve as a functional read-out for many G protein-coupled receptors.)

The structures appear in SMILES notation.

In turn, `Cc1ccc(-c2nc3c(nc2-c2ccc(C)cc2)N(CCCCCC2SC(=O)NC2=O)CCC3)cc1` (stereo not shown) [Example 2, 5-(5-(2,3-Di-p-tolyl-7,8-dihydropyrido[2,3-b]pyrazin-5(6H)-yl)pentyl)thiazolidine-2,4-dione] yielded an EC50 of 3.62 nM.

Values taken from patent US20140357641A1, “IP receptor agonist heterocyclic compounds” (NOVARTIS AG, priority 2012, published 2014).
